The nature of this assay: qHTS Assay for Lipid Storage Modulators in Drosophila S3 Cells.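 For cell number change: cells counted by Cell Tracker Red CMTPX staining in the red channel.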 The note with it: BODIPY lipid droplet fluorescence, 18-24 h; for cell number change: measured here: cell count max response, cells fed with added oleic acid. The gist of the method: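 Drosophila S3 cells loaded with oleic acid (400 uM, as added) and compounds at several concentrations; lipid droplets imaged by 488-nm laser-scanning cytometry, 500–530 nm intensity and object ratio to cell channel. Percent activity normalized to 20 uM Triacsin C.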
(In general: Quantitative high-throughput screening tests each substance at several concentrations.)

Where [1] appears, read: measured here: cell number channel AC50, cells fed with added oleic acid.
The mark [2] stands for this setting: measured here: lipid fluorescence (Fed channel) AC50, cells fed with added oleic acid.

The other results are listed elsewhere or left out. These are further read-outs of the screen, such as a control signal, another cell line or another target. No call is given for them. Most of these compounds were active or inconclusive in the main read-out, so they are no random draw. The note in brackets gives the kind of curve behind each potency; many fits are weak.

A word on the AC50: it is the midpoint of the concentration-response curve, whichever way the signal moves. A low value points to greater potency. Turning to `COc1cc(C2C3=C(CCCC3=O)OC3=C2C(=O)CCC3)ccc1OCC(=O)Nc1ccccc1`, under setting [1], the AC50 was 0.82 µM [falling, full curve]. Take `CCCCOc1ccccc1C1C(C(N)=O)=C(C)Nc2nnnn21` (stereo not drawn): the cell number change came to 7.44%. Further, under setting [2], the concentration at half-maximal activity (AC50) was 29.1 µM [rising, single point].

For the compound `O=C(CSCc1ccc(Cl)cc1)NN=C1CCCCCC1`, the cell number change is 13.2%. Moreover, under setting [2], the AC50 is 1.84 µM [rising, full curve, poor fit].

Take `CCOc1ccc(NC(=O)CN(C)C(=O)C2CCN(c3ncnc4sc(C)c(C)c34)CC2)cc1OCC`: the cell number change is -29.8%. With `Cc1ccccc1NC(=O)c1ccc(NC(=O)C2CCCO2)cc1` (stereo not drawn), the cell number change worked out at 5.13%. Take `O=C(NCCCc1ccccc1)C(=O)c1c[nH]c2ccccc12`: the cell number change was 49.6%. Further, the AC50 under setting [1] is 5.8 µM [rising, partial curve]. Besides, the AC50 under setting [2] was 11.6 µM [rising, single point]. On to `Cc1ccc(NC(=O)COC(=O)C2=NN(c3ccccc3)C(=O)CC2)c(Br)c1`, for which the cell number change is 16.5%. Moreover, the AC50 under setting [1] is 3.26 µM [rising, partial curve, poor fit]. Also, the AC50 under setting [2] was 0.231 µM [rising, full curve, poor fit]. For the compound `Nc1nnc(Cc2c[nH]c3ccccc23)s1`, the cell number change is -19.1%. The AC50 under setting [2] is 29.1 µM [rising, single point].

On to `CN(C)c1ccc(C(CNC(=O)Cc2cccc3ccccc23)N(C)C)cc1` (stereo not drawn), for which the cell number change was 18%.

For `Nc1nc(NCCCN2CCOCC2)nc(Nc2ccccc2)c1[N+](=O)[O-]`, the cell number change worked out at 80.5%. Further, the AC50 under setting [1] is 3.66 µM [falling, single point]. `O=C(COC(=O)c1ccc(F)cc1Cl)NC(=O)NC1CCCC1`: the cell number change was -37.2%. For the same compound, the half-maximal activity concentration (AC50) under setting [1] was 16.4 µM [falling, single point]. Further, under setting [2], the AC50 was 5.8 µM [falling, full curve]. Take `CCCCN(CC)C(=O)c1cc2c(=O)[nH]c3ccc(C)cc3c2s1`: the cell number change was -9.92%. `CC1(C)C(=O)Nc2ccccc2N1C(=O)COC(=O)CNS(=O)(=O)c1ccc(F)c(F)c1F`: the cell number change was 1.68%. Also, the AC50 under setting [2] is 0.00411 µM [rising, full curve, poor fit]. Turning to `CC1=C(C)/C(=N\OS(=O)(=O)c2ccc(C)cc2)C=CC1=O`, the cell number change is -77%. The half-maximal activity concentration (AC50) under setting [1] was 1.64 µM [falling, full curve]. Further, the AC50 under setting [2] was 1.46 µM [falling, full curve]. Regarding `CCOC(=O)c1sc(N)c(C(=O)Nc2ccccc2OC)c1C`, the cell number change worked out at 138%. In addition, the AC50 under setting [1] is 20.6 µM [rising, partial curve]. For `CCCCC(=O)OCC(=O)c1cc(C)n(-c2c(C)n(C)n(-c3ccccc3)c2=O)c1C`, the concentration at half-maximal activity (AC50) is 6.51 µM [falling, single point] under setting [1] and 4.61 µM [falling, partial curve, poor fit] under setting [2]. As to `Cc1nnc(SCc2ccccc2CSc2nnc(C)s2)s1`, the cell number change worked out at 1.55%. Moreover, under setting [1], the concentration at half-maximal activity (AC50) is 6.51 µM [falling, partial curve, poor fit].

Take `Cc1cccc(OCCOC(=O)C2CCN(S(=O)(=O)c3cccs3)CC2)c1`: the cell number change is -15.3%. Besides, under setting [2], the half-maximal activity concentration (AC50) was 25.9 µM [rising, single point]. `Cc1cccc(OCC(=O)NC(=S)Nc2ccc(S(=O)(=O)NC3CCCCC3)cc2)c1`: the cell number change was found to be 3.13%. As to `O=C(C1CCCC1)N1CCN(S(=O)(=O)c2ccc(Cl)cc2)CC1`, the cell number change came to 7.89%. In addition, the AC50 under setting [2] is 0.1 µM [rising, full curve, poor fit]. Turning to `COc1ccc(CN(Cc2ccncc2)C(=O)CCC(=O)O)cc1`, the cell number change was 2.95%. Regarding `CCN(CC)S(=O)(=O)c1cc(NC(=O)c2n[nH]c(=O)c3ccccc23)ccc1C`, the half-maximal activity concentration (AC50) under setting [2] is 3.26 µM [falling, partial curve]. Regarding `CCc1ccc(N(C(=O)c2snc(C(N)=O)c2N)C(C(=O)NC2CCCC2)c2ccncc2)cc1` (stereo not drawn), the cell number change was -12.8%. Further, the AC50 under setting [2] was 5.17 µM [falling, single point]. Turning to `Cc1ccc(Nc2nc3ccccc3c(=O)[nH]2)cc1C`, the cell number change amounted to 4.98%. In addition, the AC50 under setting [1] was 0.103 µM [rising, full curve, poor fit]. Further, the concentration at half-maximal activity (AC50) under setting [2] is 0.517 µM [rising, full curve, poor fit].

For the compound `CCc1ccc(OCCSc2nc3ccccc3n2CC(=O)O)cc1`, the cell number change is -5.25%. Under setting [2], the concentration at half-maximal activity (AC50) is 0.58 µM [falling, single point]. As for `Cc1noc(NS(=O)(=O)c2ccc(NC(=O)CC(C)C)cc2)c1C`, the cell number change was -7.83%.

Regarding `O=C(NCC(c1cccs1)N1CCOCC1)c1ccc(OCc2ccccc2)cc1` (stereo not drawn), the cell number change was -7.59%. Under setting [1], the half-maximal activity concentration (AC50) is 4.11 µM [falling, single point].

Regarding `COc1ccc2nc(NC(=O)c3cnccn3)sc2c1`, the cell number change stood at 68.3%. Also, under setting [1], the concentration at half-maximal activity (AC50) is 16.4 µM [rising, partial curve].

`COc1ccc(N(CC(=O)Nc2ccc3c(c2)OCCO3)S(=O)(=O)c2c(C)nn(C)c2C)cc1`: the cell number change amounted to 2.53%. Moreover, under setting [2], the AC50 was 6.51 µM [falling, single point]. As for `C=CCn1c(C2CC2)n[nH]c1=S`, the cell number change is 151%. In addition, the AC50 under setting [1] was 20.6 µM [rising, single point]. Further, the AC50 under setting [2] is 4.61 µM [falling, single point]. Regarding `COCCSc1ccccc1C(=O)NCCc1ccccc1`, the cell number change is -19.7%. Turning to `CC(NC(=O)c1cc(S(=O)(=O)N(C)C)ccc1Cl)c1ccc(-n2ccnc2)cc1` (stereo not drawn), the cell number change was determined as 44.9%. Under setting [1], the concentration at half-maximal activity (AC50) is 13 µM [rising, partial curve]. Besides, under setting [2], the half-maximal activity concentration (AC50) was 7.31 µM [rising, partial curve]. Turning to `Cc1ccc(NCCC(=O)c2ccc(Br)cc2)cc1`, the cell number change is -16.9%. For the same compound, the AC50 under setting [2] is 29.1 µM [falling, single point]. In the case of `O=S(=O)(c1ccccc1)N1CCC(=NO)CC1`, the cell number change turned out to be 19.3%. Further, the half-maximal activity concentration (AC50) under setting [1] was 2.59 µM [rising, single point]. Also, the AC50 under setting [2] was 3.66 µM [rising, single point]. Turning to `COc1ccc(Cl)cc1NC(=O)c1ocnc1C`, the cell number change is -7.65%. Also, the AC50 under setting [2] is 0.146 µM [falling, full curve, poor fit]. As to `CCOC(=O)c1ccc(CNC(=O)c2cc(COc3ccccc3SC)on2)o1`, the cell number change is 24.1%. For the same compound, the AC50 under setting [1] is 0.517 µM [rising, full curve]. Consider `Cc1ccc(Nc2c([N+](=O)[O-])c(=O)oc3ccccc23)cc1C`, for which the cell number change came out at 6.09%. `C=CCn1c(SCc2c(C)noc2C)nnc1C1COc2ccccc2O1` (stereo not drawn): the cell number change was 11.7%. The half-maximal activity concentration (AC50) under setting [1] was 1.3 µM [rising, partial curve]. As for `Cc1ccc(C(=O)Nc2nc(-c3ccccn3)cs2)o1`, the cell number change is -12.7%. For the same compound, the half-maximal activity concentration (AC50) under setting [2] was 32.6 µM [falling, single point]. With `COc1ccc(S(=O)(=O)NCCC(=O)N2CCCN(C)CC2)cc1`, the cell number change is -3.63%. Also, the AC50 under setting [2] was 0.00461 µM [falling, full curve, poor fit]. Take `O=C(OCc1c(-c2ccccc2)ncc2ccccc12)N1CCOCC1`: the cell number change is 6.86%. Under setting [2], the half-maximal activity concentration (AC50) was 0.291 µM [falling, partial curve]. For the compound `COc1cccc(CN(C)CC(=O)Nc2cccc(S(N)(=O)=O)c2)c1OC`, the cell number change amounted to 9.86%. For the same compound, the AC50 under setting [2] was 2.59 µM [rising, full curve].

`CC(=O)Nc1ccc(NC(=O)C(C)OC(=O)CCCOc2ccc(Cl)cc2C)cc1` (stereo not drawn): the cell number change is -0.64%. Under setting [2], the concentration at half-maximal activity (AC50) was 6.51 µM [falling, partial curve, poor fit]. For the compound `Cc1ccc(C(=O)c2sc(Nc3ccccc3)c(C#N)c2N)cc1`, the cell number change was -55.1%. Moreover, under setting [1], the half-maximal activity concentration (AC50) is 1.16 µM [falling, partial curve]. Besides, the AC50 under setting [2] was 29.1 µM [falling, single point].

On to `O=S(=O)(c1ccc(Cl)c(F)c1)N1CCC(c2nc(-c3ccncc3)no2)CC1`, for which the cell number change worked out at 2.45%. `CC(C)(C)C1=CC(=O)C(=O)C(C(C)(C)C)=C1`: the cell number change is -72.9%. Further, the half-maximal activity concentration (AC50) under setting [1] was 14.6 µM [falling, partial curve, poor fit]. Moreover, the AC50 under setting [2] is 13 µM [falling, partial curve, poor fit].

As for `CCOC(=O)C1CCN(S(=O)(=O)c2cccc(C(=O)Nc3ccccc3)c2)CC1`, the cell number change is 33.4%. Besides, the half-maximal activity concentration (AC50) under setting [2] is 6.51 µM [rising, single point]. In the case of `COc1ccccc1N1CCN(CCCNC(=O)Cn2ncc3c([nH]c4ccccc43)c2=O)CC1`, the cell number change is 0.298%. For the compound `CSc1ccc(S(=O)(=O)N2CCC(C(=O)N3CCc4ccccc4C3)CC2)cc1`, the cell number change came to 19.8%. In addition, the concentration at half-maximal activity (AC50) under setting [2] was 29.1 µM [falling, single point]. In the case of `CCC1(C)Cc2c(sc(NC(=O)CCC(=O)O)c2C#N)CO1` (stereo not drawn), the cell number change was -0.682%. Further, the half-maximal activity concentration (AC50) under setting [2] was 0.366 µM [falling, full curve].

Take `CC1CCCC(NC(=O)CN2C(=O)COc3ccccc32)C1C` (stereo not drawn): the cell number change was 6.73%. Also, the AC50 under setting [2] was 29.1 µM [rising, single point]. For the compound `COc1ccccc1CNC(=O)C1CCN(S(=O)(=O)c2cccc([N+](=O)[O-])c2)CC1`, the cell number change is 18.7%. In addition, under setting [2], the half-maximal activity concentration (AC50) is 0.58 µM [rising, single point]. On to `COc1cccc(-c2nc(CS(=O)CC(=O)NCc3ccc4c(c3)OCO4)c(C)o2)c1` (stereo not drawn), for which the cell number change amounted to 71.8%. Besides, the AC50 under setting [1] is 3.66 µM [rising, full curve]. Also, under setting [2], the AC50 was 1.84 µM [rising, full curve]. For the compound `COc1c(C)cc(Br)cc1C(=O)Nc1ccc(Cc2ccncc2)cc1`, the cell number change came to 5.08%.

With `O=C(c1ccc(Cl)c(S(=O)(=O)N2CCCCC2)c1)N1CCN(Cc2ccccc2)CC1`, the cell number change was -24.9%.

With `CC(C)(C)c1cc(=O)[nH]c(SCc2ccccc2Cl)n1`, the cell number change was -45.8%. In addition, the AC50 under setting [2] is 4.11 µM [falling, partial curve, poor fit]. For the compound `O=S(=O)(Nc1ncccn1)c1cc(Cl)ccc1Cl`, the cell number change was -23.9%. Also, the half-maximal activity concentration (AC50) under setting [2] is 0.116 µM [falling, full curve, poor fit]. Take `COc1ccc(CCNC(=O)Nc2cc(F)c(F)cc2Cl)cc1OC`: the cell number change is -29%. For the same compound, the AC50 under setting [2] was 29.1 µM [falling, single point].

Regarding `COc1ccc(NC(=O)CSc2ccc(-c3sc(C)nc3C)nn2)cc1OC`, the cell number change is -2.6%. The concentration at half-maximal activity (AC50) under setting [2] was 0.146 µM [rising, full curve, poor fit].

Regarding `CC(=O)Nc1ccc(NC(=O)C(C)OC(=O)C2CC(=O)N(CCc3ccccc3)C2)cc1` (stereo not drawn), the cell number change is -7.8%.

Regarding `O=C(Nc1cc(Cl)ccc1O)C1CCCO1` (stereo not drawn), the cell number change was -12.4%. Moreover, the half-maximal activity concentration (AC50) under setting [2] is 0.461 µM [rising, full curve, poor fit].

On to `COC(=O)CN(C)C(=O)c1cccc(OC2CCN(S(=O)(=O)N(C)C)CC2)c1`, for which the cell number change is -5.77%.

The record behind these values is PubChem BioAssay AID2685 (National Center for Advancing Translational Sciences (NCATS), 2010).
